Measurements: patent US8940271B2, “Transmucosal administration of drug compositions for treating and preventing disorders in animals” (Abbott Laboratories, priority 2005, dated 2015)

What was measured:
[1] = Clemastine two-way crossover, tablets vs TMOM, canine; conditions: ~1 mg/kg
[2] = dogs, 13 mg/mL clemastine fumarate, 0.25 to 1 mg/kg
[3] = tested on: cutaneous wheal and flare reaction caused by the release of histamine from mast cells; conditions: atopic dogs, TMOM 0.125, 0.5 and 1.0 mg/kg, for up to 24 hours
[4] = feline, ~1 mg/kg

## CN1CCC[C@@H]1CCO[C@](C)(c1ccccc1)c1ccc(Cl)cc1 [clemastine]
[1]
  relative bioavailability (AUC), transmucosal oral vs tablet: significantly better
[2]
  plasma concentrations with increasing TMOM dose volume (increased number of sprays): increasing plasma concentrations
[3]
  inhibition of cutaneous wheal and flare reaction: 40-70%
[4]
  Tmax, transmucosal oral vs conventional oral administration: shorter
